The list shows a part of the results. Single values of this set are uncertain.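 Tm was set to 64 °C where no melting was found, and many curves are irregular.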
Compound: CCc1cnccc1C(=O)Nc1cc2c(cc1F)NC(=O)CC2
Experiment: melting temperature shift (DMSO Tm minus MBE1-treated Tm) in cellular thermal proteome profiling; higher = less thermal stabilization by MBE1 (negative = stabilized by MBE1)
Settings: A375

Sequences of proteins named here, by UniProt entry; tags and fusion partners are left off. A change or cut given only in a name is not applied to a line headed by its entry.
UniProt P08240: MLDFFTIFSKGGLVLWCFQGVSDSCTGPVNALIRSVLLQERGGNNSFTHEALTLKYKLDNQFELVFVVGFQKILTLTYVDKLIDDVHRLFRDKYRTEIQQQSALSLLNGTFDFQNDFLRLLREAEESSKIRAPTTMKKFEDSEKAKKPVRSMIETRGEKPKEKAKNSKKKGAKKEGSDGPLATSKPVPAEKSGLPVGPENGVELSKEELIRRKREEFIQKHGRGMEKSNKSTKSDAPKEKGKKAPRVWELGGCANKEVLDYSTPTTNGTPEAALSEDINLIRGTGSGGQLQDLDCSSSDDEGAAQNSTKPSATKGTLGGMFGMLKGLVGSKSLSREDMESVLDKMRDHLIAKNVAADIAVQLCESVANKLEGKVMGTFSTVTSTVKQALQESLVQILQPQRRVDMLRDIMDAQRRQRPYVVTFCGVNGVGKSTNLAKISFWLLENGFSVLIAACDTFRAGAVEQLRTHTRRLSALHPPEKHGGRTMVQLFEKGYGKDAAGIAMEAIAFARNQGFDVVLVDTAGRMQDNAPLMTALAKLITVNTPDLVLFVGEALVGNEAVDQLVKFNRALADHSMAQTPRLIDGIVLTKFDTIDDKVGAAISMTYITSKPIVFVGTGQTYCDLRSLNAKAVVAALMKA
UniProt P17029: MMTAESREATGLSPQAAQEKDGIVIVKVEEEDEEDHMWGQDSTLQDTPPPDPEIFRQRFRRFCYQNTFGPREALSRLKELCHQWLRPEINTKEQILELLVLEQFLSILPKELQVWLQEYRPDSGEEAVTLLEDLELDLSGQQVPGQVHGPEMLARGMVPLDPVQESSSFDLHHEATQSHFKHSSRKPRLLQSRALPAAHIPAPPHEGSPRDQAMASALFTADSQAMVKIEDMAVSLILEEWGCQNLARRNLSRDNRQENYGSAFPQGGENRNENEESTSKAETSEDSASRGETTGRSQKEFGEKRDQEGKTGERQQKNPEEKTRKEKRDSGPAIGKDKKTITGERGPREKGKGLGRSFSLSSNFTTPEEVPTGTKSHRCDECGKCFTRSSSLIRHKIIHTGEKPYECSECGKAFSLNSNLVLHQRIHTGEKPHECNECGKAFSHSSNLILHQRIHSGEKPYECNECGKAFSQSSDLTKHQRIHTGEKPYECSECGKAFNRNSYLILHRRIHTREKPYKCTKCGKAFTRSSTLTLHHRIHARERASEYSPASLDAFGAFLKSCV
UniProt P14859: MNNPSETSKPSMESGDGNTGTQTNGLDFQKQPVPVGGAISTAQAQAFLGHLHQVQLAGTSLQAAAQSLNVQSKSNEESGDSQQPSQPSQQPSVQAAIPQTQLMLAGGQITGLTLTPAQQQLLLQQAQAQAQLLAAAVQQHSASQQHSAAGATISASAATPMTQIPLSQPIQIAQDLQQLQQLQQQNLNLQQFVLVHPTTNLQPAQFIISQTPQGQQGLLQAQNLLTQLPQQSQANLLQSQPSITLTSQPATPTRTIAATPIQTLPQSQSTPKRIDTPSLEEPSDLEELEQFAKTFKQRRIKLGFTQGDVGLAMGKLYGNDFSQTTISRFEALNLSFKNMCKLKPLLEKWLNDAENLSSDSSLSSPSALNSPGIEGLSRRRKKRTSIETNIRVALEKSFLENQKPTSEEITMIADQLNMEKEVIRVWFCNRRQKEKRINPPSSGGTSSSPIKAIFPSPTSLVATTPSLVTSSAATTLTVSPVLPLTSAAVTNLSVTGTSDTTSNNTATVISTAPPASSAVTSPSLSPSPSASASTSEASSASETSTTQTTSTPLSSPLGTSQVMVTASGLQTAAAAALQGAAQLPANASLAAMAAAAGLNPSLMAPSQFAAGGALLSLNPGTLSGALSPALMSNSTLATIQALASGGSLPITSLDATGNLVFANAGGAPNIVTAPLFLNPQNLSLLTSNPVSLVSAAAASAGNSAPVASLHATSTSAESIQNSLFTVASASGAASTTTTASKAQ
UniProt P12814, whole entry: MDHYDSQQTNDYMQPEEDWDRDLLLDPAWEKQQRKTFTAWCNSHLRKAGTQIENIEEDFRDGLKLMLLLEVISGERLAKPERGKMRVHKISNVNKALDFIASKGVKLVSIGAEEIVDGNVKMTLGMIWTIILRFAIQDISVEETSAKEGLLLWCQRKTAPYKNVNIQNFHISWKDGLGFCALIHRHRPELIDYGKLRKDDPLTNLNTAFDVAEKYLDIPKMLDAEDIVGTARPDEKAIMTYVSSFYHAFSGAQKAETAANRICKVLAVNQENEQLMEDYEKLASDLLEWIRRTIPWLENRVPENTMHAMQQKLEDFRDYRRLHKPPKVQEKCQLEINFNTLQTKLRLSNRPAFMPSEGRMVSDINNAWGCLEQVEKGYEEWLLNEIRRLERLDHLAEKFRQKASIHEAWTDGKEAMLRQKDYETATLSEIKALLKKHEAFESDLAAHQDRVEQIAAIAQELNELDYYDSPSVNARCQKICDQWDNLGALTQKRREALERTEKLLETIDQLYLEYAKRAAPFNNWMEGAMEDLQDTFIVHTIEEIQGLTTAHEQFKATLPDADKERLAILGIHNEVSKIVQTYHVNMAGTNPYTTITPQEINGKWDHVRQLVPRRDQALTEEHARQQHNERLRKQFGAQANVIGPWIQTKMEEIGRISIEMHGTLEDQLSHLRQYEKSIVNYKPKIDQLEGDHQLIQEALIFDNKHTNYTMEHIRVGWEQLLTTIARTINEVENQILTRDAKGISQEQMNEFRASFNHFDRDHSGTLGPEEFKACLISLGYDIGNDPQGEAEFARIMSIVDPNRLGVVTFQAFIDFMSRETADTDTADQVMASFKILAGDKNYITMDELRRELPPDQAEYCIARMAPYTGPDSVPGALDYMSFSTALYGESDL
UniProt P18440: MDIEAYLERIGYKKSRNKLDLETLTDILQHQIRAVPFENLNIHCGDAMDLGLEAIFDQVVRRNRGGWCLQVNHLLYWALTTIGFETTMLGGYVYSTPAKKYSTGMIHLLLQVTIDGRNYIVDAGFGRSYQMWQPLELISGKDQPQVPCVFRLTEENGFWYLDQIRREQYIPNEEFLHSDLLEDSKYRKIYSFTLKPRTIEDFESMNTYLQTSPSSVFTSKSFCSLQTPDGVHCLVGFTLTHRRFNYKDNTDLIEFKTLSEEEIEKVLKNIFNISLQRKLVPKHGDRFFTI
UniProt P09382, whole entry: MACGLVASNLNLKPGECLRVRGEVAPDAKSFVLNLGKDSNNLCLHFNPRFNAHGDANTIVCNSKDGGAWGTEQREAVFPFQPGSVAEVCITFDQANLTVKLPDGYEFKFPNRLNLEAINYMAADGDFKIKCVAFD
UniProt P18084: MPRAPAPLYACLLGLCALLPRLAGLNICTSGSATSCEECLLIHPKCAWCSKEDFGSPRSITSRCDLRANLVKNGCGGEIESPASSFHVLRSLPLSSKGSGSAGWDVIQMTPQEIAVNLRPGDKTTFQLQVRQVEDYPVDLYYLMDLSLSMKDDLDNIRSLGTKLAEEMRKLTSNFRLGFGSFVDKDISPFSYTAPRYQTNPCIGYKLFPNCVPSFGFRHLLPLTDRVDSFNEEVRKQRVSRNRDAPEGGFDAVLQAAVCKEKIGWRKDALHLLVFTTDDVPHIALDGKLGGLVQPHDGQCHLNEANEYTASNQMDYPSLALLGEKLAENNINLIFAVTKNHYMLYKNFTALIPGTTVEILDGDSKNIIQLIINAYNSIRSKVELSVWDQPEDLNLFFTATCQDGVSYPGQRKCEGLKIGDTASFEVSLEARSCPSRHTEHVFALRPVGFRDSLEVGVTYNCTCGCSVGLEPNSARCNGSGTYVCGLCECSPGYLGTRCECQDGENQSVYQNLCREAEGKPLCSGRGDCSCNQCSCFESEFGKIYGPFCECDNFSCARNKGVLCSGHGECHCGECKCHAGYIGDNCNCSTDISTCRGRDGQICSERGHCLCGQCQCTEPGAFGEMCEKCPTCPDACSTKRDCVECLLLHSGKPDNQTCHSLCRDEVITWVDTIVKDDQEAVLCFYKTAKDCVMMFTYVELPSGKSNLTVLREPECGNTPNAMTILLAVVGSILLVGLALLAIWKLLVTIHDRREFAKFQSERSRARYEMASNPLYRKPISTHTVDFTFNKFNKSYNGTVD
UniProt P18754: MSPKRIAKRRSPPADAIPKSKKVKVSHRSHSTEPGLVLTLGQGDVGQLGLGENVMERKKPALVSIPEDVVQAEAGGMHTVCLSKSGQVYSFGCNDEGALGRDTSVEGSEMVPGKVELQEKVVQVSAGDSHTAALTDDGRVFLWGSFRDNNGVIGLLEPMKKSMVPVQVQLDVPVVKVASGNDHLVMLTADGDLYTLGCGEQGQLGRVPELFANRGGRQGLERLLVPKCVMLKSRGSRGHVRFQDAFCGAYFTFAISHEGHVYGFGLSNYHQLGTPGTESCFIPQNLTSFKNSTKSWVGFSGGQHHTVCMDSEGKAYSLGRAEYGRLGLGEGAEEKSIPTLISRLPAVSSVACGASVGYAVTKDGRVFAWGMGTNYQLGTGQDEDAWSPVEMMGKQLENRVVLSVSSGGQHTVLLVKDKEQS
UniProt P15289: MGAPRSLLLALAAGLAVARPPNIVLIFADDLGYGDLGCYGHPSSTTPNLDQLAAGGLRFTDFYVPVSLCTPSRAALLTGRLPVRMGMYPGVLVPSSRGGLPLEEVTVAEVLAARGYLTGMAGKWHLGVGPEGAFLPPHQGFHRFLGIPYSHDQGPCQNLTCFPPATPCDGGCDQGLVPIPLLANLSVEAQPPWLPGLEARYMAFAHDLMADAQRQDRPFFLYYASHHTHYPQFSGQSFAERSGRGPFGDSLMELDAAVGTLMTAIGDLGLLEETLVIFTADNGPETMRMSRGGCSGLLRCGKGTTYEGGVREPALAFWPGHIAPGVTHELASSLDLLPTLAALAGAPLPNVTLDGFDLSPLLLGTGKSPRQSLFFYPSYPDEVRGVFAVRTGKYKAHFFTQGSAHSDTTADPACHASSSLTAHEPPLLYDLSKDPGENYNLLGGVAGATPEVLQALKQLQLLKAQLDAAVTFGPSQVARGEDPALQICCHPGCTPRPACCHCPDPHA
UniProt P10155: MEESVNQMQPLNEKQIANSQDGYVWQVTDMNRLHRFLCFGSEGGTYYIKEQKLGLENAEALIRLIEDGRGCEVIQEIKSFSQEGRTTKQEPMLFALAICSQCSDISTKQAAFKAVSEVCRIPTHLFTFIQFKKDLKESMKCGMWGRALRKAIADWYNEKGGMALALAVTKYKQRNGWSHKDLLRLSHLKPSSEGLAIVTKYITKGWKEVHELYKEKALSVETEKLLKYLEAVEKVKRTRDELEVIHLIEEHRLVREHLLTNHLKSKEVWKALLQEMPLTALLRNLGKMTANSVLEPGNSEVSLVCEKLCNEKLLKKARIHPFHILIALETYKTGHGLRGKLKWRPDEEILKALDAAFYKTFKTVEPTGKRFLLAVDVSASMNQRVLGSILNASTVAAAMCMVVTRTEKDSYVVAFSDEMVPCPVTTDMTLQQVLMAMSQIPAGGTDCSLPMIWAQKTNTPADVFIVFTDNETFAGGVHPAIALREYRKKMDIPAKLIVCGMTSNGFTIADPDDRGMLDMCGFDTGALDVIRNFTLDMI
UniProt P08579, whole entry: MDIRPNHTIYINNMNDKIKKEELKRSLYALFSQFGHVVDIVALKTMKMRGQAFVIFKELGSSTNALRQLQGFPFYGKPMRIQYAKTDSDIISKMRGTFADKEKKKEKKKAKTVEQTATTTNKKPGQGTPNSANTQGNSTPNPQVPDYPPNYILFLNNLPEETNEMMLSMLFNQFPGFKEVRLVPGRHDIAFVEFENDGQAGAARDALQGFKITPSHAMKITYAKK
UniProt P10109: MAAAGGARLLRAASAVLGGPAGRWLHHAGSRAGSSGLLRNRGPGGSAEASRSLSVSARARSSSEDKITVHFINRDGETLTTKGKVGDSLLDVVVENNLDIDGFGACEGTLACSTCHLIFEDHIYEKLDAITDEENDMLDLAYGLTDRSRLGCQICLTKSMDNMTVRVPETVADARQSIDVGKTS
UniProt P0DMV8, whole entry, looked up: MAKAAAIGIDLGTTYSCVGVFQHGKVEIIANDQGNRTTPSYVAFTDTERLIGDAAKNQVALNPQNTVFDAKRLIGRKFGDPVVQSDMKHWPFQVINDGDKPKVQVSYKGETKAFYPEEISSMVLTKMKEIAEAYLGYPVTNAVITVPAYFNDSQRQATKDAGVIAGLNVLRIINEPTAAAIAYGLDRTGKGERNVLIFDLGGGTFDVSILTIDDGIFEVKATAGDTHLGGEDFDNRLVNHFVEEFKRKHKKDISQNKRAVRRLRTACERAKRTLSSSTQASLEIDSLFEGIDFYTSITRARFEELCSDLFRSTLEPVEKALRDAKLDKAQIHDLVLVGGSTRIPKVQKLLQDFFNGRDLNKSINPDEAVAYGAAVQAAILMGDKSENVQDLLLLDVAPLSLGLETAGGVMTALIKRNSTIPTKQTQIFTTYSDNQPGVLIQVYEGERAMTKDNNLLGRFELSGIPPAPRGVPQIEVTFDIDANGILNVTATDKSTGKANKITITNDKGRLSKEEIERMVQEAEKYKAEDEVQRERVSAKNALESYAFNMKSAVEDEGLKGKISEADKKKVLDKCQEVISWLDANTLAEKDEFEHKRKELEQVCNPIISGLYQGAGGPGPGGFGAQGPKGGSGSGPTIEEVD

Row | Target | melting temperature shift (MBE1 concentration: 100 nM) [°C] | melting temperature shift (MBE1 concentration: 1 uM) [°C]
1 | SRPRA (UniProt P08240) | 0.495 | 0.421
2 | G6PD (UniProt P11413) | -0.127 | -0.409
3 | RPL17 (UniProt P18621) | -0.513 | 0.879
4 | ZKSCAN1 (UniProt P17029) | -1.47 | -0.858
5 | HSP90B1 (UniProt P14625) | -0.965 | -0.183
6 | LDHB (UniProt P07195) | -0.723 | -0.914
7 | LAMB1 (UniProt P07942) | -0.818 | -0.107
8 | HMBS (UniProt P08397) | -1.73 | -3.15
9 | TRIM27 (UniProt P14373) | -1.02 | 6.41
10 | COL4A2 (UniProt P08572) | -0.516 | 0.391
11 | POU2F1 (UniProt P14859) | -0.00611 | -0.415
12 | UniProt P09668 | -1.95 | -1.87
13 | TOP2A (UniProt P11388) | -0.602 | -0.48
14 | PPP3CB (UniProt P16298) | -1.55 | 0.107
15 | ENO3 (UniProt P13929) | -3.28 | -3.09
16 | ACTN1 (UniProt P12814) | -1.12 | -1.09
17 | AKR1A1 (UniProt P14550) | -0.724 | -0.128
18 | ATF6 (UniProt P18850) | -1.84 | -1.45
19 | UniProt P18440 | -1.09 | 0.047
20 | HMOX1 (UniProt P09601) | -0.181 | 0.0604
21 | LGALS1 (UniProt P09382) | -0.738 | -1.44
22 | UniProt P14406 | -2.68 | -3.91
23 | XRCC6 (UniProt P12956) | -0.741 | -0.774
24 | UniProt P10070 | 0.861 | -1.25
25 | PDIA4 (UniProt P13667) | -1.01 | -0.0872

Records 5–14 of the list above:
Row | Target | melting temperature shift (MBE1 concentration: 100 nM) [°C] | melting temperature shift (MBE1 concentration: 1 uM) [°C]
5 | HSP90B1 (UniProt P14625) | -0.965 | -0.183
6 | LDHB (UniProt P07195) | -0.723 | -0.914
7 | LAMB1 (UniProt P07942) | -0.818 | -0.107
8 | HMBS (UniProt P08397) | -1.73 | -3.15
9 | TRIM27 (UniProt P14373) | -1.02 | 6.41
10 | COL4A2 (UniProt P08572) | -0.516 | 0.391
11 | POU2F1 (UniProt P14859) | -0.00611 | -0.415
12 | UniProt P09668 | -1.95 | -1.87
13 | TOP2A (UniProt P11388) | -0.602 | -0.48
14 | PPP3CB (UniProt P16298) | -1.55 | 0.107

(further entries)

Row | Target | melting temperature shift (MBE1 concentration: 100 nM) [°C] | melting temperature shift (MBE1 concentration: 1 uM) [°C]
26 | PEPD (UniProt P12955) | -1.28 | -0.44
27 | ITGB5 (UniProt P18084) | -2.07 | -0.0855
28 | DMD (UniProt P11532) | -1.12 | 1.01
29 | PTPN2 (UniProt P17706) | -0.32 | -0.706
30 | XRCC1 (UniProt P18887) | -0.154 | -0.327
31 | RCC1 (UniProt P18754) | -0.528 | 0.448
32 | ARSA (UniProt P15289) | 0 | -2.82
33 | TROVE2 (UniProt P10155) | -1.35 | -0.162
34 | SNRPB2 (UniProt P08579) | -0.704 | -0.57
35 | SNRNP70 (UniProt P08621) | 0.407 | 0.128
36 | P4HA1 (UniProt P13674) | -1.16 | 0.361
37 | SLC9A1 (UniProt P19634) | -0.972 | 0.0794
38 | BPGM (UniProt P07738) | -1.81 | -0.937
39 | HSPA8 (UniProt P11142) | -1.32 | -0.879
40 | POLA1 (UniProt P09884) | -1.22 | -1.37
41 | GLB1 (UniProt P16278) | -1.64 | -0.652
42 | SP1 (UniProt P08047) | -1.18 | 0.128
43 | PYGB (UniProt P11216) | -0.221 | -0.268
44 | FDX1 (UniProt P10109) | 0.806 | -3.64
45 | ANXA7 (UniProt P20073) | 0.116 | -0.104
46 | ERCC1 (UniProt P07992) | -0.0672 | -0.721
47 | CKB (UniProt P12277) | -1.95 | 0.434
48 | CTSB (UniProt P07858) | -1.34 | -0.195
49 | P0DMV9 (UniProt P0DMV8) | -0.845 | -0.657

— the supplement of paper PMC12595434, “Development of retinoid nuclear receptor pathway antagonists through targeting aldehyde dehydrogenase 1A3” (iScience, 2025)
